According to publication PMC7368280:
Results are given in words; binding and its absence hold for the method and conditions named. In cells and extracts the contact can be indirect. Here binding means that the protein was enriched with, or labelled near, the bait; the list need not be complete. Where a sequence is shown, tags or fusion partners need not be part of it.

T1: EMF1-3XFLAG (in emf1) (Arabidopsis) (UniProt Q9LYD9)
T1 sequence: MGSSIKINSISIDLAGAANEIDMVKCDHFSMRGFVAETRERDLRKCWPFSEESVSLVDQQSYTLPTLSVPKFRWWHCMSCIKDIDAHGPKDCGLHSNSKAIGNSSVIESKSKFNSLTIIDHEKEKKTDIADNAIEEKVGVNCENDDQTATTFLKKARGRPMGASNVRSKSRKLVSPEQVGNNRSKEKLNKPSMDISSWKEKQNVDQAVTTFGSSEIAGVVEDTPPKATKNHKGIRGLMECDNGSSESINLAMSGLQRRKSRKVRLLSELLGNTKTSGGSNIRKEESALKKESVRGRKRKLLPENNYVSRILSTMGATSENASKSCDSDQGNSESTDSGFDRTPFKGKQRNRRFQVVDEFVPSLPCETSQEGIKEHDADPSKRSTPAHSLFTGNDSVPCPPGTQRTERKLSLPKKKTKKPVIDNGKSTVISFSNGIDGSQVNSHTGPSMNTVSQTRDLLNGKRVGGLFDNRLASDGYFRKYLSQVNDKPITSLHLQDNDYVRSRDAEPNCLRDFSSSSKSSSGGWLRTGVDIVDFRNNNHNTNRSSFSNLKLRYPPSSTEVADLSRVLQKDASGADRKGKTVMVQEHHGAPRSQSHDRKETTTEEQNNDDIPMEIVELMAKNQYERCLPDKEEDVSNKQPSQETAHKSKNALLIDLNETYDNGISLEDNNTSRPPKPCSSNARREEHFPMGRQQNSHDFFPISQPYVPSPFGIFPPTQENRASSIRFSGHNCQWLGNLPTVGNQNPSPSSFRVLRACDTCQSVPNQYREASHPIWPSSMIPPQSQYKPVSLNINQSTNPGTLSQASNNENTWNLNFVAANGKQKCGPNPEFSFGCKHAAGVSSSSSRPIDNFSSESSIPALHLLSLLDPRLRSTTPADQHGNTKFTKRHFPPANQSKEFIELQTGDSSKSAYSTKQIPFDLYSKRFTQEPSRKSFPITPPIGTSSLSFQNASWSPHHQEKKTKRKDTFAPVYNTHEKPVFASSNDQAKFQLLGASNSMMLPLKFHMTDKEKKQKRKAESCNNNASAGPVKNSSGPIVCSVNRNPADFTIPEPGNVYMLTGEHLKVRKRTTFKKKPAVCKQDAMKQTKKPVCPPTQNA

T2: ICU11-3xHA (gICU11-HA in icu11-3) (Arabidopsis) (UniProt Q3ED68)
T2 sequence: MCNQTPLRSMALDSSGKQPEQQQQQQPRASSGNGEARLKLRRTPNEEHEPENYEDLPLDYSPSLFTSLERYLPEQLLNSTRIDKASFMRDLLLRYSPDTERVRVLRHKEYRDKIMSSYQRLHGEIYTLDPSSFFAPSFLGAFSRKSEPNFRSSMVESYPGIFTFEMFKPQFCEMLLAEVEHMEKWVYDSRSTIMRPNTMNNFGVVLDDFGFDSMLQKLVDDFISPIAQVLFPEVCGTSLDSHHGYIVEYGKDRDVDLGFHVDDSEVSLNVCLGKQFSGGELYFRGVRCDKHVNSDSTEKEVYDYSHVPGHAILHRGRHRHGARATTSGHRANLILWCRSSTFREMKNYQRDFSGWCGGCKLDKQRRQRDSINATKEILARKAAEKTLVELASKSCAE

T3: ICU11-eGFP (gICU11-GFP in icu11-3) (Arabidopsis) (UniProt Q3ED68)
T3 sequence: T2 sequence

B1: CURLY LEAF (CLF), endogenous (protein, UniProt P93831 1-902)
chain: MASEASPSSSATRSEPPKDSPAEERGPASKEVSEVIESLKKKLAADRCISIKKRIDENKKNLFAITQSFMRSSMERGGSCKDGSDLLVKRQRDSPGMKSGIDESNNNRYVEDGPASSGMVQGSSVPVKISLRPIKMPDIKRLSPYTTWVFLDRNQRMTEDQSVVGRRRIYYDQTGGEALICSDSEEEAIDDEEEKRDFLEPEDYIIRMTLEQLGLSDSVLAELASFLSRSTSEIKARHGVLMKEKEVSESGDNQAESSLLNKDMEGALDSFDNLFCRRCLVFDCRLHGCSQDLIFPAEKPAPWCPPVDENLTCGANCYKTLLKSGRFPGYGTIEGKTGTSSDGAGTKTTPTKFSSKLNGRKPKTFPSESASSNEKCALETSDSENGLQQDTNSDKVSSSPKVKGSGRRVGRKRNKNRVAERVPRKTQKRQKKTEASDSDSIASGSCSPSDAKHKDNEDATSSSQKHVKSGNSGKSRKNGTPAEVSNNSVKDDVPVCQSNEVASELDAPGSDESLRKEEFMGETVSRGRLATNKLWRPLEKSLFDKGVEIFGMNSCLIARNLLSGFKSCWEVFQYMTCSENKASFFGGDGLNPDGSSKFDINGNMVNNQVRRRSRFLRRRGKVRRLKYTWKSAAYHSIRKRITEKKDQPCRQFNPCNCKIACGKECPCLLNGTCCEKYCGCPKSCKNRFRGCHCAKSQCRSRQCPCFAADRECDPDVCRNCWVIGGDGSLGVPSQRGDNYECRNMKLLLKQQQRVLLGISDVSGWGAFLKNSVSKHEYLGEYTGELISHKEADKRGKIYDRENCSFLFNLNDQFVLDAYRKGDKLKFANHSPEPNCYAKVIMVAGDHRVGIFAKERILAGEELFYDYRYEPDRAPAWAKKPEAPGSKKDENVTPSVGRPKKLA
B2: SWINGER (SWN), endogenous (protein, UniProt Q9ZSM8 1-856)
chain: MVTDDSNSSGRIKSHVDDDDDGEEEEDRLEGLENRLSELKRKIQGERVRSIKEKFEANRKKVDAHVSPFSSAASSRATAEDNGNSNMLSSRMRMPLCKLNGFSHGVGDRDYVPTKDVISASVKLPIAERIPPYTTWIFLDRNQRMAEDQSVVGRRQIYYEQHGGETLICSDSEEEPEPEEEKREFSEGEDSIIWLIGQEYGMGEEVQDALCQLLSVDASDILERYNELKLKDKQNTEEFSNSGFKLGISLEKGLGAALDSFDNLFCRRCLVFDCRLHGCSQPLISASEKQPYWSDYEGDRKPCSKHCYLQLKAVREVPETCSNFASKAEEKASEEECSKAVSSDVPHAAASGVSLQVEKTDIGIKNVDSSSGVEQEHGIRGKREVPILKDSNDLPNLSNKKQKTAASDTKMSFVNSVPSLDQALDSTKGDQGGTTDNKVNRDSEADAKEVGEPIPDNSVHDGGSSICQPHHGSGNGAIIIAEMSETSRPSTEWNPIEKDLYLKGVEIFGRNSCLIARNLLSGLKTCLDVSNYMRENEVSVFRRSSTPNLLLDDGRTDPGNDNDEVPPRTRLFRRKGKTRKLKYSTKSAGHPSVWKRIAGGKNQSCKQYTPCGCLSMCGKDCPCLTNETCCEKYCGCSKSCKNRFRGCHCAKSQCRSRQCPCFAAGRECDPDVCRNCWVSCGDGSLGEAPRRGEGQCGNMRLLLRQQQRILLGKSDVAGWGAFLKNSVSKNEYLGEYTGELISHHEADKRGKIYDRANSSFLFDLNDQYVLDAQRKGDKLKFANHSAKPNCYAKVMFVAGDHRVGIFANERIEASEELFYDYRYGPDQAPVWARKPEGSKKDDSAITHRRARKHQSH
B3: FERTILIZATION … ENDOSPERM (protein, UniProt Q9LT47 1-369)
chain: MSKITLGNESIVGSLTPSNKKSYKVTNRIQEGKKPLYAVVFNFLDARFFDVFVTAGGNRITLYNCLGDGAISALQSYADEDKEESFYTVSWACGVNGNPYVAAGGVKGIIRVIDVNSETIHKSLVGHGDSVNEIRTQPLKPQLVITASKDESVRLWNVETGICILIFAGAGGHRYEVLSVDFHPSDIYRFASCGMDTTIKIWSMKEFWTYVEKSFTWTDDPSKFPTKFVQFPVFTASIHTNYVDCNRWFGDFILSKSVDNEILLWEPQLKENSPGEGASDVLLRYPVPMCDIWFIKFSCDLHLSSVAIGNQEGKVYVWDLKSCPPVLITKLSHNQSKSVIRQTAMSVDGSTILACCEDGTIWRWDVITK
B4: EMBRYONIC FLOWER (EMF)2 (protein, UniProt Q8L6Y4 1-631)
chain: MPGIPLVSRETSSCSRSTEQMCHEDSRLRISEEEEIAAEESLAAYCKPVELYNIIQRRAIRNPLFLQRCLHYKIEAKHKRRIQMTVFLSGAIDAGVQTQKLFPLYILLARLVSPKPVAEYSAVYRFSRACILTGGLGVDGVSQAQANFLLPDMNRLALEAKSGSLAILFISFAGAQNSQFGIDSGKIHSGNIGGHCLWSKIPLQSLYASWQKSPNMDLGQRVDTVSLVEMQPCFIKLKSMSEEKCVSIQVPSNPLTSSSPQQVQVTISAEEVGSTEKSPYSSFSYNDISSSSLLQIIRLRTGNVVFNYRYYNNKLQKTEVTEDFSCPFCLVKCASFKGLRYHLPSTHDLLNFEFWVTEEFQAVNVSLKTETMISKVNEDDVDPKQQTFFFSSKKFRRRRQKSQVRSSRQGPHLGLGCEVLDKTDDAHSVRSEKSRIPPGKHYERIGGAESGQRVPPGTSPADVQSCGDPDYVQSIAGSTMLQFAKTRKISIERSDLRNRSLLQKRQFFHSHRAQPMALEQVLSDRDSEDEVDDDVADFEDRRMLDDFVDVTKDEKQMMHMWNSFVRKQRVLADGHIPWACEAFSRLHGPIMVRTPHLIWCWRVFMVKLWNHGLLDARTMNNCNTFLEQLQI
B5: TELOMERE-REPEAT-BINDING (TRB) 1 (protein, UniProt Q8VWK4 1-300)
chain: MGAPKQKWTQEEESALKSGVIKHGPGKWRTILKDPEFSGVLYLRSNVDLKDKWRNMSVMANGWGSREKSRLAVKRTFSLPKQEENSLALTNSLQSDEENVDATSGLQVSSNPPPRRPNVRLDSLIMEAIATLKEPGGCNKTTIGAYIEDQYHAPPDFKRLLSTKLKYLTSCGKLVKVKRKYRIPNSTPLSSHRRKGLGVFGGKQRTSSLPSPKTDIDEVNFQTRSQIDTEIARMKSMNVHEAAAVAAQAVAEAEAAMAEAEEAAKEAEAAEAEAEAAQAFAEEASKTLKGRNICKMMIRA

Molecular target: T1, EMF1-3XFLAG (in emf1) (Arabidopsis)
Assay: affinity purification with mass spectrometry; coIP-MS with EMF1-3XFLAG as bait from Arabidopsis plants (EMF1-3XFLAG emf1), control Col-0; two independent experiments; procedure in SI Appendix

| binding | Binder |
| --- | --- |
| binds | B1 |
| binds | B2 |
| binds | B3 |
| binds | B4 |

Molecular target: T2, ICU11-3xHA (gICU11-HA in icu11-3) (Arabidopsis)
Assay: affinity purification with mass spectrometry; coIP-MS with 3xHA-tagged ICU11 as bait from Arabidopsis plants (gICU11-HA icu11-3), control icu11-3; two independent experiments; procedure in SI Appendix

| binding | Binder |
| --- | --- |
| binds | B1 |
| binds | B2 |
| binds | B3 |
| binds | B4 |
| binds | B5 |

Molecular target: T3, ICU11-eGFP (gICU11-GFP in icu11-3) (Arabidopsis)
Assay: affinity purification with mass spectrometry; coIP-MS with GFP-tagged baits from Arabidopsis plants (gICU11-GFP icu11-3; 35S:GFP-CLF clf-50; gSWN-GFP), control 35S::GFP; two independent experiments; procedure in SI Appendix

| binding | Binder |
| --- | --- |
| binds | B1 |
| binds | B2 |
| binds | B3 |
| binds | B4 |
| binds | B5 |
